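Human melanoma cell lines in 1,536-well plates were treated with two drugs together for 72 h, then fixed, stained and imaged. The read-out is cell count (nuclei) in % of the DMSO control; lower values mean stronger growth inhibition or killing. Concentrations were fixed for each drug; these are the higher of two levels. These are primary screening values without error estimates.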 This is part of the screen, not chosen by result.

First drug in all entries: crizotinib, 1000 nM, C[C@@H](Oc1cc(-c2cnn(C3CCNCC3)c2)cnc1N)c1c(Cl)ccc(F)c1Cl

With CN1CCN(c2ccc3nc(-c4c(N)c5c(F)cccc5[nH]c4=O)[nH]c3c2)CC1 at 500 nM the screen read COLO 800: 65.5; COLO 792: 65.9; C32: 73.0; WM3619: 70.1; WM451Lu: 81.2; COLO 829: 64.7. With CC(=O)O[C@@]12CO[C@@H]1C[C@H](O)[C@@]1(C)C(=O)[C@H](O)C3=C(C)[C@@H](OC(=O)[C@H](O)[C@@H](NC(=O)OC(C)(C)C)c4ccccc4)C[C@@](O)([C@@H](OC(=O)c4ccccc4)[C@H]21)C3(C)C at 0.5 nM the screen read COLO 800: 36.4; COLO 792: 21.4; C32: 76.3; WM3619: 52.2; WM451Lu: 34.3; COLO 829: 42.8. With N#Cc1c(O)c2c(-c3ccc(-c4ccccc4O)cc3)csc2[nH]c1=O at 10000 nM the screen read COLO 800: 74.8; COLO 792: 97.6; C32: 99.1; WM3619: 91.8; WM451Lu: 102; COLO 829: 120.

Results for COc1cc([C@@H]2c3cc4c(cc3[C@@H](O[C@@H]3O[C@@H]5CO[C@@H](C)O[C@H]5[C@H](O)[C@H]3O)[C@H]3COC(=O)[C@H]23)OCO4)cc(OC)c1O at 100 nM are COLO 800: 52.7; COLO 792: 79.6; C32: 84.0; WM3619: 58.0; WM451Lu: 76.7; COLO 829: 84.1. With COc1ccc(-c2ccc3c(N4CCOCC4)nc(N4C[C@@H](C)O[C@@H](C)C4)nc3n2)cc1CO at 100 nM the screen read COLO 800: 77.7; COLO 792: 106; C32: 78.3; WM3619: 66.4; WM451Lu: 72.0; COLO 829: 76.5. C[C@]1(c2nc3c(C(N)=O)cccc3[nH]2)CCCN1 at 7000 nM gave COLO 800: 19.7; COLO 792: 90.7; C32: 76.9; WM3619: 76.5; WM451Lu: 79.7; COLO 829: 88.3.

O=C(O)c1ccc2c(c1)nc(Nc1cccc(Cl)c1)c1ccncc12 at 2000 nM gave COLO 800: 35.3; COLO 792: 51.9; C32: 75.5; WM3619: 82.5; WM451Lu: 62.9; COLO 829: 46.8. Results for Cc1cc(N2CCOCC2)cc2[nH]c(-c3c(NC[C@@H](O)c4cccc(Cl)c4)cc[nH]c3=O)nc12 at 1000 nM are COLO 800: 37.8; COLO 792: 50.7; C32: 95.3; WM3619: 108; WM451Lu: 90.7; COLO 829: 97.9. For CCc1ccc(CCOc2ccc(CC3SC(=O)NC3=O)cc2)nc1 (stereo not shown) at 10000 nM the values were COLO 800: 73.6; COLO 792: 97.9; C32: 102; WM3619: 80.9; WM451Lu: 78.4; COLO 829: 91.4.

Oc1nc(-c2ccc(C(F)(F)F)cc2)nc2c1CSCC2 at 10000 nM gave COLO 800: 73.2; COLO 792: 86.7; C32: 74.5; WM3619: 102; WM451Lu: 91.8; COLO 829: 78.4. CNC(=O)c1cc(Oc2ccc(NC(=O)Nc3ccc(Cl)c(C(F)(F)F)c3)cc2)ccn1 at 2000 nM gave COLO 800: 117; COLO 792: 116; C32: 98.1; WM3619: 96.1; WM451Lu: 77.2; COLO 829: 94.2. Cn1c(Nc2ccc(C(F)(F)F)cc2)nc2cc(Oc3ccnc(-c4ncc(C(F)(F)F)[nH]4)c3)ccc21 at 400 nM gave COLO 800: 32.9; COLO 792: 19.4; C32: 54.8; WM3619: 43.4; WM451Lu: 39.9; COLO 829: 60.5.

For Cc1ccc(Nc2nccc(N(C)c3ccc4c(C)n(C)nc4c3)n2)cc1S(N)(=O)=O at 2000 nM the values were COLO 800: 79.5; COLO 792: 82.8; C32: 82.8; WM3619: 96.8; WM451Lu: 67.1; COLO 829: 73.8. For Cc1nc(Nc2ncc(C(=O)Nc3c(C)cccc3Cl)s2)cc(N2CCN(CCO)CC2)n1 at 20 nM the values were COLO 800: 64.7; COLO 792: 46.7; C32: 63.5; WM3619: 73.2; WM451Lu: 59.2; COLO 829: 50.3. For CS(=O)(=O)c1ccc(C(=O)Nc2ccc(Cl)c(-c3ccccn3)c2)c(Cl)c1 at 5000 nM the values were COLO 800: 85.2; COLO 792: 95.5; C32: 109; WM3619: 115; WM451Lu: 93.2; COLO 829: 75.5.

For COc1cc2c(Oc3ccc4[nH]c(C)cc4c3F)ncnc2cc1OCCCN1CCCC1 at 2000 nM the values were COLO 800: 58.4; COLO 792: 68.3; C32: 75.6; WM3619: 87.7; WM451Lu: 82.0; COLO 829: 88.9. Nc1nc(F)nc2c1ncn2[C@@H]1O[C@H](CO)[C@@H](O)[C@@H]1O at 1000 nM gave COLO 800: 64.3; COLO 792: 60.7; C32: 74.8; WM3619: 71.3; WM451Lu: 99.2; COLO 829: 87.9. Results for O=C1NC(=O)/C(=C/c2ccc(-c3ccc(F)cc3O)o2)S1 at 5000 nM are COLO 800: 73.3; COLO 792: 99.6; C32: 97.4; WM3619: 70.4; WM451Lu: 90.4; COLO 829: 81.4.

Repeated from the top, 2 entries:

* CN1CCN(c2ccc3nc(-c4c(N)c5c(F)cccc5[nH]c4=O)[nH]c3c2)CC1 at 500 nM : COLO 800: 65.5; COLO 792: 65.9; C32: 73.0; WM3619: 70.1; WM451Lu: 81.2; COLO 829: 64.7
* CC(=O)O[C@@]12CO[C@@H]1C[C@H](O)[C@@]1(C)C(=O)[C@H](O)C3=C(C)[C@@H](OC(=O)[C@H](O)[C@@H](NC(=O)OC(C)(C)C)c4ccccc4)C[C@@](O)([C@@H](OC(=O)c4ccccc4)[C@H]21)C3(C)C at 0.5 nM : COLO 800: 36.4; COLO 792: 21.4; C32: 76.3; WM3619: 52.2; WM451Lu: 34.3; COLO 829: 42.8

Values as published with doi:10.1371/journal.pone.0140310, rounded.